# Data from the supplement of paper PMC4604168 (melanoma cell lines).
# The list shows a part of the results. Repeats are few or missing, and single values can be far off.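 The apoptosis fraction was the count of cleaved-PARP antibody-stained nuclei relative to all DNA-stained nuclei, imaged in 1,536-well plates. Screening doses were set so most cells survived, and baseline and induced cleaved-PARP levels vary greatly across cell lines.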
# Tested on: RPMI7951
# Assay: cleaved PARP positive nuclei fraction relative to DMSO control; melanoma cells; higher = more apoptosis
# Conditions: library dose: low library concentration; 72 h
row,SMILES,cleaved PARP positive nuclei fraction [%]
1,"Nc1nc(F)nc2c1ncn2[C@@H]1O[C@H](CO)[C@@H](O)[C@@H]1O [fludarabine] + NCC(=O)Nc1ccc(-n2nc(C(F)(F)F)cc2-c2ccc3c(ccc4ccccc43)c2)cc1 [OSU03012] (first compound 0.2 µM, partner dose 1 µM)",53.7
2,"CC(C)C[C@H](NC(=O)[C@H](Cc1ccccc1)NC(=O)c1cnccn1)B(O)O [Bortezomib] + COc1cc2c(Oc3ccc4[nH]c(C)cc4c3F)ncnc2cc1OCCCN1CCCC1 [cediranib] (first compound 0.001 µM, partner dose 0.4 µM)",198
3,"CC(C)C[C@H](NC(=O)[C@H](Cc1ccccc1)NC(=O)c1cnccn1)B(O)O [Bortezomib] + C[C@@H]1CCN(C(=O)CC#N)C[C@@H]1N(C)c1ncnc2[nH]ccc12 [CP690550] (first compound 0.001 µM, partner dose 1 µM)",124
4,"Nc1ccn([C@@H]2O[C@H](CO)[C@@H](O)C2(F)F)c(=O)n1 [gemcitabine] + C=CCn1c(=O)c2cnc(Nc3ccc(N4CCN(C)CC4)cc3)nc2n1-c1cccc(C(C)(C)O)n1 [MK1775] (first compound 0.0004 µM, partner dose 0.02 µM)",107
5,"CNC(=O)c1cc(Oc2ccc(NC(=O)Nc3ccc(Cl)c(C(F)(F)F)c3)cc2)ccn1 [sorafenib] + COc1cc2c(Oc3ccc4[nH]c(C)cc4c3F)ncnc2cc1OCCCN1CCCC1 [cediranib] (first compound 0.4 µM, partner dose 0.4 µM)",205
6,"CNC(=O)c1cc(Oc2ccc(NC(=O)Nc3ccc(Cl)c(C(F)(F)F)c3)cc2)ccn1 [sorafenib] + Cc1ccc(NC(=O)c2cccc(N(C)C)c2)cc1NC(=O)c1ccc(O)cc1 [ZM336372] (first compound 0.4 µM, partner dose 2 µM)",106
7,"C[C@@H](Oc1cc(-c2cnn(C3CCNCC3)c2)cnc1N)c1c(Cl)ccc(F)c1Cl [Crizotinib] + CCN(CC)CCCCNc1ncc2cc(-c3cc(OC)cc(OC)c3)c(NC(=O)NC(C)(C)C)nc2n1 [PD173074] (first compound 0.2 µM, partner dose 0.1 µM)",67.9
8,"Nc1ncn([C@H]2C[C@H](O)[C@@H](CO)O2)c(=O)n1 [decitabine] + O=c1cc(-c2cccc3c2Sc2ccccc2S3)oc(N2CCOCC2)c1 [KU55933] (first compound 0.1 µM, partner dose 1 µM)",362
9,"O=C(O)c1ccc2c(c1)nc(Nc1cccc(Cl)c1)c1ccncc12 + O=C(O)c1ccc(-c2c[nH]c3ncc(-c4ccccc4)cc23)cc1C1CCCC1 [GSK650394] (first compound 0.4 µM, partner dose 0.16 µM)",200
10,"Cc1cc(Nc2cc(N3CCN(C)CC3)nc(/C=C/c3ccccc3)n2)n[nH]1 + C=CCn1c(=O)c2cnc(Nc3ccc(N4CCN(C)CC4)cc3)nc2n1-c1cccc(C(C)(C)O)n1 [MK1775] (first compound 0.04 µM, partner dose 0.02 µM)",105
11,"Nc1ccn([C@@H]2O[C@H](CO)[C@@H](O)C2(F)F)c(=O)n1 [gemcitabine] + O=C(Nc1cccc(Cl)c1)Nc1ncc(CCNc2ncnc3ccsc23)s1 [SNS314] (first compound 0.0004 µM, partner dose 0.0008 µM)",33.1
12,"C[C@@H](Oc1cc(-c2cnn(C3CCNCC3)c2)cnc1N)c1c(Cl)ccc(F)c1Cl [Crizotinib] + CO[C@@H]1[C@H](N(C)C(=O)c2ccccc2)C[C@H]2O[C@]1(C)n1c3ccccc3c3c4c(c5c6ccccc6n2c5c31)C(=O)NC4 [Midostaurin] (first compound 0.2 µM, partner dose 0.08 µM)",79.1
13,"CC(C)C[C@H](NC(=O)[C@H](Cc1ccccc1)NC(=O)c1cnccn1)B(O)O [Bortezomib] + COc1ccc2c(c1)CCC1C2CCC2(C)C(NCCCCCCN3C(=O)C=CC3=O)CCC12 [U73122] (first compound 0.001 µM, partner dose 0.4 µM)",160
14,"Nc1ccn([C@@H]2O[C@H](CO)[C@@H](O)C2(F)F)c(=O)n1 [gemcitabine] + OCCn1cc(-c2cnc3nnn(Cc4ccc5ncccc5c4)c3n2)cn1 [PF04217903] (first compound 0.0004 µM, partner dose 1 µM)",128
15,"CNC(=O)c1cc(Oc2ccc(NC(=O)Nc3ccc(Cl)c(C(F)(F)F)c3)cc2)ccn1 [sorafenib] + CO[C@@H]1[C@H](N(C)C(=O)c2ccccc2)C[C@H]2O[C@]1(C)n1c3ccccc3c3c4c(c5c6ccccc6n2c5c31)C(=O)NC4 [Midostaurin] (first compound 0.4 µM, partner dose 0.08 µM)",84.2
16,"O=C(O)[C@@H]1[O][Sb](=[O])([O][Sb]2(=[O])[O][C@H]([C@H](O)CO)[C@H](O)[C@H](C(=O)O)[O]2)[O][C@H]([C@H](O)CO)[C@@H]1O (stereo partly specified) [stibogluconate] + Cc1ccc(NC(=O)c2cccc(N(C)C)c2)cc1NC(=O)c1ccc(O)cc1 [ZM336372] (first compound 2 µM, partner dose 2 µM)",111
17,"CN1CCN(c2ccc3nc(-c4c(N)c5c(F)cccc5[nH]c4=O)[nH]c3c2)CC1 [Dovitinib] + COc1cc2c(Oc3ccc4[nH]c(C)cc4c3F)ncnc2cc1OCCCN1CCCC1 [cediranib] (first compound 0.1 µM, partner dose 0.4 µM)",174
18,"CC(C)C[C@H](NC(=O)[C@H](Cc1ccccc1)NC(=O)c1cnccn1)B(O)O [Bortezomib] + CC(C)CCN1c2nc(Nc3cc(F)c(O)c(F)c3)ncc2N(C)C(=O)C1C [BID1870] (first compound 0.001 µM, partner dose 0.2 µM)",80.9
19,"O=C(O)c1ccc2c(c1)nc(Nc1cccc(Cl)c1)c1ccncc12 + NCC(=O)Nc1ccc(-n2nc(C(F)(F)F)cc2-c2ccc3c(ccc4ccccc43)c2)cc1 [OSU03012] (first compound 0.4 µM, partner dose 1 µM)",117
20,"Nc1ncn([C@H]2C[C@H](O)[C@@H](CO)O2)c(=O)n1 [decitabine] + Cn1cc(/C=C2\C(=O)Nc3cccnc32)c2ccccc21 [GW441756] (first compound 0.1 µM, partner dose 0.4 µM)",78
21,"CNC(=O)c1cc(Oc2ccc(NC(=O)Nc3ccc(Cl)c(C(F)(F)F)c3)cc2)ccn1 [sorafenib] + Oc1nc(-c2ccc(C(F)(F)F)cc2)nc2c1CSCC2 [XAV939] (first compound 0.4 µM, partner dose 2 µM)",39.6
22,"O=C(O)[C@@H]1[O][Sb](=[O])([O][Sb]2(=[O])[O][C@H]([C@H](O)CO)[C@H](O)[C@H](C(=O)O)[O]2)[O][C@H]([C@H](O)CO)[C@@H]1O (stereo partly specified) [stibogluconate] + C=CCn1c(=O)c2cnc(Nc3ccc(N4CCN(C)CC4)cc3)nc2n1-c1cccc(C(C)(C)O)n1 [MK1775] (first compound 2 µM, partner dose 0.02 µM)",39.6
23,"CC(C)C[C@H](NC(=O)[C@H](Cc1ccccc1)NC(=O)c1cnccn1)B(O)O [Bortezomib] + O=c1cc(-c2cccc3c2Sc2ccccc2S3)oc(N2CCOCC2)c1 [KU55933] (first compound 0.001 µM, partner dose 1 µM)",64.4
24,"Cn1c(=O)n(-c2ccc(C(C)(C)C#N)cc2)c2c3cc(-c4cnc5ccccc5c4)ccc3ncc21 + OCCn1cc(-c2cnc3nnn(Cc4ccc5ncccc5c4)c3n2)cn1 [PF04217903] (first compound 0.004 µM, partner dose 1 µM)",172
25,"Cn1c(=O)n(-c2ccc(C(C)(C)C#N)cc2)c2c3cc(-c4cnc5ccccc5c4)ccc3ncc21 + c1cc(-c2cnn3cc(-c4ccc(OCCN5CCCCC5)cc4)cnc23)ccn1 [Dorsomorphin] (first compound 0.004 µM, partner dose 0.4 µM)",218
26,"O=C(O)c1ccc2c(c1)nc(Nc1cccc(Cl)c1)c1ccncc12 + COc1ccc(-c2ccc3c(N4CCOCC4)nc(N4C[C@@H](C)O[C@@H](C)C4)nc3n2)cc1CO [KU0063794] (first compound 0.4 µM, partner dose 0.02 µM)",72.3

# Two entries from above, tab-delimited:
row	SMILES	cleaved PARP positive nuclei fraction [%]
1	Nc1nc(F)nc2c1ncn2[C@@H]1O[C@H](CO)[C@@H](O)[C@@H]1O [fludarabine] + NCC(=O)Nc1ccc(-n2nc(C(F)(F)F)cc2-c2ccc3c(ccc4ccccc43)c2)cc1 [OSU03012] (first compound 0.2 µM, partner dose 1 µM)	53.7
8	Nc1ncn([C@H]2C[C@H](O)[C@@H](CO)O2)c(=O)n1 [decitabine] + O=c1cc(-c2cccc3c2Sc2ccccc2S3)oc(N2CCOCC2)c1 [KU55933] (first compound 0.1 µM, partner dose 1 µM)	362
